Data as given in PubChem BioAssay AID504808 (Drosophila RNAi Screening Center, 2011).

Assay: 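Fly genes required to hold E2F transcription in check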 (primary screen)
Cells: Drosophila S2 cells
Reagents: long dsRNA against Drosophila genes
Measurement: 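Firefly luciferase driven by E2F sites, normalised to Renilla luciferase on the same minimal promoter, measured by plate reader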
Reading the numbers: E2F firefly: higher = more E2F reporter activity; Renilla normaliser: higher = more normaliser reporter signal
Call rule: 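a knock-down counted as active when the firefly/Renilla E2F signal rose above 50%, a threshold chosen arbitrarily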
The screen tested about 21,000 reagents; below is a random part of those that have a named target and a result. Of all reagents, 18 (0.084%) were called active. 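Raw counts without plate normalisation, one of two replicates; the ratio scores behind the calls were not deposited.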 A number with no mark means an inactive call. Names joined by + are all predicted targets of the reagent. Not given: the amount of reagent, the time to read-out.

Target gene	amplicon	E2F firefly, rep 1	Renilla normaliser, rep 1
ProtB	DRSC03373	95070	4729
TwdlF	DRSC12225	76366	3276
CG33630	DRSC14546	1.57e5	6772
Tehao	DRSC03449	1.04e5	4782
Yp3	DRSC20302	1.70e5	7195
Spp	DRSC00328	93216	4023
CG42490 (retired record)	DRSC01649	1.62e5	5760
Atg10 + CG12822	DRSC06796	1.40e5	5129
Hus1-like	DRSC12353	1.41e5	7622
CG34461	DRSC10767	91595	3757
CG9308	DRSC04539	1.08e5	4332
Vtld + CG42529	DRSC10102	1.38e5	8395
CG30109 + CG30108	DRSC05674	1.58e5	6247
mGluR	DRSC17215	1.07e5	6091
Rab8	DRSC11261	76736	3308
Sr-CIV	DRSC00575	1.39e5	5013
Hexo1	DRSC08663	87372	3458
CG8206	DRSC20093	8288	776
NdufA3	DRSC18431	55547	4281
CG31624	DRSC02617	83665	3562
CG2336	DRSC12581	1.45e5	7261
superdeath	DRSC14868	48901	3575
SecS	DRSC12222	1.39e5	6974
CG43325	DRSC04157	1.05e5	4147
CatB	DRSC03194	90471	3622
CG42656	DRSC12472	71155	4152
stmA	DRSC05120	1.33e5	5511
stmA	DRSC07593	3185	247
Mst84Db	DRSC12542	1.37e5	6738
Mst84Db	DRSC12598	1.28e5	6774
Syt4	DRSC12606	1.28e5	6663
CSN1a	DRSC01951	85673	3973
Trxr1	DRSC18668	7831	720
CG14785	DRSC18604	1813	1052
CG13728	DRSC10056	1.59e5	8424
AMPKalpha	DRSC18714	1592	872
INPP5E	DRSC09723	1.26e5	7311

Limited to “E2F firefly, rep 1” (10 entries from above):
Rab8 [DRSC11261]	76736
Sr-CIV [DRSC00575]	1.39e5
Hexo1 [DRSC08663]	87372
CG8206 [DRSC20093]	8288
NdufA3 [DRSC18431]	55547
CG31624 [DRSC02617]	83665
CG2336 [DRSC12581]	1.45e5
superdeath [DRSC14868]	48901
SecS [DRSC12222]	1.39e5
CG43325 [DRSC04157]	1.05e5

The results go on.
Target gene	amplicon	E2F firefly, rep 1	Renilla normaliser, rep 1
CG15256	DRSC01940	1.07e5	4432
CG13215	DRSC06337	94916	4289
CG14689	DRSC14912	1.33e5	6442
CG6472	DRSC06989	1.62e5	5577
CG9628	DRSC11082	82890	3750
Rop	DRSC08693	61532	3390
Sbat	DRSC00160	1.39e5	6112
GstE9	DRSC06679	1.35e5	4903
NimC3	DRSC03556	90048	3831
CG12517	DRSC02173	1.33e5	4150
osi	DRSC02931	1.11e5	4407
CG10681	DRSC09777	71355	3801
Mur18B	DRSC20063	1.52e5	5499
CG31371	DRSC15079	1.28e5	6501
Atg8b	DRSC14501	1.26e5	8175
CG5726	DRSC06946	70376	3598
fzr2	DRSC04280	84124	2928
Alg1	DRSC15297	63002	3586
sun	DRSC20140	2.16e5	7058
CG17580	DRSC06683	1.16e5	4675
Tmtc3	DRSC04444	80254	3272
RpS27A	DRSC03421	1.26e5	6054
CG7987	DRSC16357	64897	3614
strat	DRSC03069	1.52e5	4813
CG9458	DRSC16495	1.28e5	5900
Hmgs	DRSC06866	1.35e5	4750
Gnmt	DRSC15987	1.46e5	6320
Ugt36A1	DRSC00748	1.55e5	5534
CG16970 (retired record)	DRSC01310	1.28e5	6029
CG16970 (retired record)	DRSC02549	88430	3628
CG30275	DRSC04163	1.09e5	4234
Ugt301D1	DRSC02021	95692	4173
Mpi	DRSC16417	1.44e5	7323
CG17202	DRSC15194	1.19e5	5448
CG4956	DRSC15683	1.11e5	5892
Dora	DRSC19614	1.34e5	5488
Dora	DRSC19781	1.41e5	112
Dora	DRSC20034	1.28e5	6198
Dora	DRSC20035	98544	4521
Eps-15	DRSC04288	85528	3678
Slmap	DRSC03799	92452	4179
lectin-21Ca	DRSC00541	1.53e5	5691
CG4751	DRSC02776	76460	3466
Nf1	DRSC16758	1788	876
CG9289	DRSC03187	1.41e5	5011
CG42827 + CG42828	DRSC16116	95424	5005
CG14736	DRSC14956	1.49e5	6510
Reph	DRSC00634	75033	3628
Keap1	DRSC15528	62285	2944
CG18449	DRSC06754	1.23e5	4550
TBC1d7 + mRpS24	DRSC14611	1.02e5	5403
NKCC	DRSC12140	77282	3103
NKCC	DRSC12311	1.43e5	7186
hubl	DRSC06825	1.29e5	4333
CG8541	DRSC10989	96061	4479
Six4	DRSC11881	1.32e5	7160
DCTN6-p27	DRSC02609	1.02e5	4226
Gcat	DRSC09719	1.21e5	7694
CG31029	DRSC15422	1.08e5	5944
Tbce	DRSC04897	86296	3384
inaC	DRSC07632	73369	3397
CG31010	DRSC14006	95711	2981
CG11560	DRSC09843	82857	3878
grass	DRSC15911	1.21e5	6668
CG10116	DRSC09700	76801	3179
CG12860	DRSC06200	1.06e5	4164
Nha2	DRSC14689	1.18e5	6135
Nha2	DRSC15619	68204	3123
Nha2	DRSC15623	1.11e5	6352
CG4781	DRSC04488	1.12e5	4146
